Data source: PubChem BioAssay AID1259308 (NCATS, 2017)

Assay: 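Knock-downs that increase output of a recombinant reporter protein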 (primary screen)
Cell system: human HEK293 embryonic kidney cells stably expressing firefly luciferase (HEK-CMV-Luc2-Hygro)
Reagents: single siRNA against human genes, 0.8 pmol siRNA per well
Duration: 72 h
Measurement: 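Reporter luminescence and viable-cell signal on separate replicate plates, given as percent of non-targeting control and median/MAD z-scores, plus per-cell luciferase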
Direction: total luciferase, z-score and total luciferase, % of control: higher = more reporter protein produced; luciferase per cell, z-score: higher = more reporter output per viable cell; viable cells, % of control: higher = more viable cells
Rule for the call: 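Active when the median/MAD z-score for overall luciferase is greater than 3; a gene was taken forward for validation with new siRNAs if at least two of its three siRNAs passed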
Meaning of the calls: active = raised luciferase; inactive = no rise
Here is one part, drawn at random, of about 59,000 reagents. About 1,510 of them (2.6%) were called active. 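Calls use total luciferase alone and ignore viability, so some active siRNAs may act by altering cell number.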

Target gene	PubChem SID	total luciferase, z-score	total luciferase, % of control	luciferase per cell, z-score	viable cells, % of control	Outcome
ARAF (GeneID 369)	SID160770871	-0.514	71.7	-0.524	91.9	inactive
ARAF (GeneID 369)	SID160770947	-1.32	55.6	-1.89	102	inactive
ARAF (GeneID 369)	SID160771027	0.188	85.6	-0.546	110	inactive
RPL27P8 (GeneID 729332)	SID160772672	1.28	107	1.26	86.1	inactive
RPL27P8 (GeneID 729332)	SID160772673	-0.122	79.5	-0.0613	90.2	inactive
RPL27P8 (GeneID 729332)	SID160772674	-2.6	30.1	-2.11	58.6	inactive
ADAMTS20 (GeneID 80070)	SID160750028	-0.399	73.9	0.26	77.2	inactive
ADAMTS20 (GeneID 80070)	SID160750029	-0.876	64.5	-0.383	79.7	inactive
ADAMTS20 (GeneID 80070)	SID160750030	0.684	95.5	0.455	94.7	inactive
CHDH (GeneID 55349)	SID160743608	2.2	126	1.97	83.6	inactive
CHDH (GeneID 55349)	SID160743609	-0.574	70.5	-0.196	82.9	inactive
CHDH (GeneID 55349)	SID160743612	-0.099	79.9	-0.456	101	inactive

Only “total luciferase, z-score” (3 entries from above):
RPL27P8 (GeneID 729332) [SID160772672]: 1.28
RPL27P8 (GeneID 729332) [SID160772673]: -0.122
RPL27P8 (GeneID 729332) [SID160772674]: -2.6

Next entries follow.
Target gene	PubChem SID	total luciferase, z-score	total luciferase, % of control	luciferase per cell, z-score	viable cells, % of control	Outcome
ZNF395 (GeneID 55893)	SID160744597	1.03	102	0.595	97.9	inactive
ZNF395 (GeneID 55893)	SID160744598	-1.27	56.6	-1.09	84.4	inactive
ZNF395 (GeneID 55893)	SID160744599	-2.08	40.5	-1.1	60.4	inactive
ICOS (GeneID 29851)	SID160739210	-2.64	29.5	-2.99	72.4	inactive
ICOS (GeneID 29851)	SID160739211	1.77	117	1.14	96.8	inactive
ICOS (GeneID 29851)	SID160739212	3.5	151	2.21	94.6	active
ABCG1 (GeneID 9619)	SID160722628	-0.305	75.8	-0.492	96.5	inactive
ABCG1 (GeneID 9619)	SID160722629	-0.137	79.2	-0.924	113	inactive
ABCG1 (GeneID 9619)	SID160722630	-0.455	72.8	-1.01	106	inactive
NCOA7 (GeneID 135112)	SID160757384	0.11	84.1	0.0134	93.6	inactive
NCOA7 (GeneID 135112)	SID160757385	1.17	105	1.15	86.7	inactive
NCOA7 (GeneID 135112)	SID160757387	-0.422	73.5	-0.407	91.4	inactive
